Data reported in PubChem BioAssay AID504847 (National Center for Advancing Translational Sciences (NCATS), 2011).
Among all 400,000 compounds or so, about 3,700 (0.93%) were called active. Inconclusive results, whose numbers are uncertain, are shown with a selection of clear calls. Calls follow the shape of the dose curve; as a rule, active = well fitted inhibition curve with a large enough effect; inconclusive = small, poorly fitted or top-dose-only effect, or another doubt; inactive = no such curve, though single readings can be large or run the other way. A potency beside an inconclusive call is a rough fit, not a confirmed value.

Protein sequences, listed by entry. Tags and fused reporters are not part of them. Lines headed by an entry give the natural chain unless they say otherwise; changes in a name come on top.
UniProt P11473: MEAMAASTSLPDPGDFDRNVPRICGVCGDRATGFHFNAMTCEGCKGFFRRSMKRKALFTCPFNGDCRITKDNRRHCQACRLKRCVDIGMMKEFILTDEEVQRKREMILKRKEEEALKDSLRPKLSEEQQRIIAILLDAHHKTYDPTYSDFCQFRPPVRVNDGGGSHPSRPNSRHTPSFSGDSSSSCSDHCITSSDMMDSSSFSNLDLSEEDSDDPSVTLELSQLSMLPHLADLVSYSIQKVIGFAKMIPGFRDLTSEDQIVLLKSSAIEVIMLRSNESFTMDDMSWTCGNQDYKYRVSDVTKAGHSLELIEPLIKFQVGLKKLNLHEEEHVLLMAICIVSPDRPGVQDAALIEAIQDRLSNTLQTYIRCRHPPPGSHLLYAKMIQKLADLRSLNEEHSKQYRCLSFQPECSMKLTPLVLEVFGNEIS

biological target: Vitamin D3 receptor (Homo sapiens) (UniProt P11473); assay: Inhibitors of the vitamin D receptor (VDR): qHTS; conditions: VDR-SRC2-3 peptide fluorescence polarization, 2 h; max response, negative = inhibition: hits give low values
How it was run: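 The screen uses fluorescence polarization to detect compounds that interfere with recruitment of the SRC2-3 coactivator peptide to VDR; plates are read after 2 h at room temperature.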
% is scaled to controls: 0 for no effect and ±100 for the full control effect; potency is read from the fitted curve at half-maximal effect.

Potency, inconclusive:
CC(C)/C=C/C(=O)N1CCCC(N2CCN(c3ccccc3F)CC2)C1 (configuration not stated) 112 µM [inhibitor, partial curve, poor fit], C=CCSc1nccc(=O)[nH]1 89.1 µM [inhibitor, single point], Cc1ccc(-c2nc(N3CCOCC3)sc2C(=O)N2CCCCC2)cc1 79.4 µM [inhibitor, single point], CC(C)(C)c1cc(C(=O)Nc2cccnc2)cc(C(=O)Nc2cccnc2)c1 89.1 µM [inhibitor, single point], O=C(NCCCN1CCOCC1)C(=O)NCC1CCCO1 (configuration not stated) 39.8 µM [inhibitor, single point], COc1ccc(CN2C(=O)c3ccc(C(=O)O)cc3C2=O)cc1 100 µM [inhibitor, single point], Cc1[nH]c2ccccc2c1C(=O)C(=O)N1c2ccccc2CC1C (configuration not stated) 14.1 µM [inhibitor, full curve], CCC1CCCCN1C(=O)CSc1nc2ncccc2[nH]1 (configuration not stated) 100 µM [inhibitor, single point], C/C(=N\NC(=O)c1nn(C)cc1Br)c1cccc(NC(=O)C2CCCC2)c1 4.47 µM [inhibitor, full curve, poor fit], CCOC(=O)N1CCN(Cc2nc3cc(NC(=O)C(C)C)ccc3n2C)CC1 89.1 µM [inhibitor, partial curve, poor fit], Cc1[nH]c2ccccc2c1C(=O)C(=O)Nc1ccc2c(c1)OCCO2 100 µM [inhibitor, single point], CCC(=O)Nc1ccc2oc(-c3cccc(C)c3)nc2c1 10 µM [inhibitor, partial curve, poor fit], COc1ccc(S(=O)(=O)Nc2nnc(C(C)(C)C)s2)cc1 50.1 µM [inhibitor, partial curve, poor fit], CC(C(=O)Nc1ccccc1C(=O)N1CCOCC1)N(c1ccccc1)S(C)(=O)=O (configuration not stated) 44.7 µM [inhibitor, partial curve, poor fit], CC1CCC2(CC1)NC(=O)N(NC(=O)c1cc3ccccc3o1)C2=O (configuration not stated) 89.1 µM [inhibitor, partial curve, poor fit], O=C1c2ccccc2C(=O)N1CCSc1n[nH]c(=S)s1 89.1 µM [inhibitor, single point], CC1CCCCN1C(=O)CSc1nc(-c2ccccc2)cn1N (configuration not stated) 79.4 µM [inhibitor, partial curve], COc1cc2cnc(CCCC#N)cc2cc1OC 8.91 µM [inhibitor, partial curve, poor fit], O=S1(=O)CCOC[C@H](CC2CCCCC2)N1Cc1ccccc1F 100 µM [inhibitor, single point], CCCCOc1cccc(/C=C(\C#N)C(=O)NC2CC2)c1 79.4 µM [inhibitor, partial curve, poor fit], Cc1ccc(N(CC(O)COCc2ccco2)S(=O)(=O)c2ccc(C)cc2)cc1 (configuration not stated) 79.4 µM [inhibitor, partial curve], O=C(COC(=O)c1c[nH]c2ccccc12)Nc1ccc(F)cc1 0.562 µM [inhibitor, full curve, poor fit], Cc1ccc(O)c(C(=O)c2cnn(-c3ccccc3)c2)c1 31.6 µM [inhibitor, partial curve, poor fit], Clc1ccccc1-c1nn2c(-c3ccncc3)nnc2s1 31.6 µM [inhibitor, full curve, poor fit], Cc1ccc(N(Cc2cc3ccc(C)cc3[nH]c2=O)C(=O)c2ccco2)cc1 39.8 µM [inhibitor, single point], N#Cc1c(-c2ccccc2)cc(-c2ccccc2)nc1SCC(=O)O 70.8 µM [inhibitor, partial curve], COc1ccc(-n2c(C)cc(C(=O)CCl)c2C)cc1 63.1 µM [inhibitor, partial curve, poor fit], COc1ccc(-n2c(Cc3cccn3C)nnc2SCC(=O)Nc2ccc(C)cc2C)cc1 8.91 µM [inhibitor, full curve], Oc1ccccc1C1C=C(c2ccc3c(c2)OCO3)NC(c2cccc(F)c2)N1 (configuration not stated) 89.1 µM [inhibitor, single point], CC(C)NCCCCOc1cccc(Br)c1 79.4 µM [inhibitor, single point], Cc1onc(C(=O)Nc2sc3c(c2C#N)CCCC3)c1[N+](=O)[O-] 100 µM [inhibitor, partial curve, poor fit], O=C(/C=C/c1ccccc1Cl)c1ccc(O)cc1 44.7 µM [inhibitor, partial curve, poor fit], Cc1cc(-c2n[nH]c(=S)n2/N=C/C(Br)=C/c2ccccc2)n[nH]1 50.1 µM [inhibitor, partial curve, poor fit], CC(=C1C(=O)c2ccccc2C1=O)N1CCN(C/C=C/c2ccccc2)CC1 89.1 µM [inhibitor, single point], Cc1cc(C)c(NC(=O)C[C@H](CC(=O)O)c2cccc3ccccc23)c(C(=O)N2CCC3(CCCC3)CC2)c1 50.1 µM [inhibitor, partial curve, poor fit], O=C(CCCCCNC(=O)c1ccccc1)C[N+](=O)[O-] 89.1 µM [inhibitor, single point], Cc1nc(SCc2cccc(F)c2)[nH]c(=O)c1C#N 89.1 µM [inhibitor, partial curve, poor fit], Cn1cc(C(=O)NCCc2ccccc2)c(=O)c2cc(S(=O)(=O)N3CCOCC3)ccc21 28.2 µM [inhibitor, single point], O=C(/C=C/c1ccc(O)c(O)c1)c1ccc(O)cc1O 44.7 µM [inhibitor, partial curve], CCc1nc(SCC(=O)c2ccccc2)c2ccccc2n1 50.1 µM [inhibitor, partial curve, poor fit], CCCn1c(N)c(C(=S)NC(=O)C2CC2)c(=O)n(C)c1=O 89.1 µM [inhibitor, single point]

Potency, active:
CCOc1cc(/C=C2/C(=N)N3C(=NC2=O)SN=C3S(C)(=O)=O)ccc1OS(=O)(=O)c1ccccc1 25.1 µM, COC(=O)c1ccc(NC(=O)CSc2ccccc2)cc1 50.1 µM, O=c1cc(CO)oc(C(Nc2cccc([N+](=O)[O-])c2)c2ccccn2)c1O (configuration not stated) 79.4 µM, O=C(NCCCCc1ccccc1)c1cccc(NC(=O)C2CC2)c1 79.4 µM, O=C(O)c1ccc(-c2ccccc2C(F)(F)F)s1 126 µM, CC(C)C(=O)N(c1ccc2oc(=O)sc2c1)S(=O)(=O)c1cccs1 44.7 µM, O=C(Nc1nccs1)C(Br)C(Br)c1ccccc1 (configuration not stated) 28.2 µM, O=C1c2ccccc2C(=O)C12OC2c1ccc(Cl)cc1Cl (configuration not stated) 89.1 µM, COc1ccc(-c2nc3ccccc3c(=O)n2NC(=S)N(C)C)cc1 35.5 µM

Max response, negative = inhibition, inactive:
CSCC[C@H](NC(=O)[C@H](CC(C)C)NC(=O)CNC(=O)[C@H](Cc1ccccc1)N(C)C(=O)[C@H](Cc1ccccc1)NC(=O)[C@H](CC(=O)O)NC(=O)[C@@H](N)CC(=O)O)C(N)=O 7.08%, CCc1cc2c(NCC(=O)O)ncnc2s1 0.423%, COc1cc(NC(=O)CCn2c(-c3ccccc3)cc(C(C)=O)c2C)cc(OC)c1 -10.3%, Cc1cc(NS(=O)(=O)c2ccc(NC(=O)c3cc(-c4ccccc4Cl)nc4ccccc34)cc2)no1 6.9%, CCc1ccccc1NS(=O)(=O)c1ccc2[nH]cc(C(=O)N3CCCCC3)c(=O)c2c1 -12.6%, Cc1ccc(NC(=O)c2cccc(NC(=O)/C=C/c3ccco3)c2)cc1C 12.7%, COc1cccc2cc(C(=O)CS(=O)(=O)c3ccc(C(C)(C)C)cc3)c(=O)oc12 -7.68%, COc1ccc(NC(=O)COC(C)=O)cc1Cl -5.99%, Cc1ccc(Nc2ncnc3c2nnn3Cc2ccccc2)cc1 -4.96%, O=C1CN(C(=S)NC(=O)c2ccccc2[N+](=O)[O-])CCN1 16.7%, CC1CCCCN1C(=O)c1cccc(NC2=C(Cl)C(=O)N(Cc3ccccc3)C2=O)c1 (configuration not stated) -18.5%, Cc1ccc(SCc2nc(-c3ccc(C(=O)NCc4ccc(Cl)cc4)cc3)oc2C)cc1 9.73%, COc1ccc(-n2c(CNC(=O)COc3ccc(Cl)cc3)n[nH]c2=S)cc1 -9.65%, COc1ccc(OCC(O)CN2CCN(Cc3ccc4c(c3)OCO4)CC2)cc1 (configuration not stated) 1.98%, CCOc1ccc(CCNC(=O)COC(=O)CSc2ccccc2C)cc1OCC -10.6%, CN(C)c1ccc(C(C(=O)NC2CCCCC2)N(Cc2ccco2)C(=O)c2snc(C(N)=O)c2N)cc1 (configuration not stated) -13.6%, Cc1ccc(CCNC(=O)c2cc3sccc3n2Cc2ccc(C)cc2)cc1 12.7%
